Assay results as given in paper doi:10.1101/2025.09.25.678588.
For at least one entry, the source does not settle the construct or the ends of the probe.

Legend:
Assay in all cases: EMSA
[1] = tested on: MabRRO (Rhodococcus opacus PD630); conditions: 5 mM Mg2+
[2] = tested on: FadR1RO (Rhodococcus opacus PD630); conditions: no acyl-CoA, binding at estimated uM protein
[3] = tested on: FadR2RO (Rhodococcus opacus PD630); conditions: no acyl-CoA, binding at estimated uM protein, small shift

Measured: binding result

TTAACACCAGTCACACCCTTCCCATTCGGAGAAGCAGGGCTGTAACGAACGTCTGTCCAGATTCGATGCGAGGACCCCACGTGCAATTTTGTGGGAACCCAACAAATCCGCCGACAAAGGTTCATCCGCAACGACATCTCGCGGCACGCCGTTGACGGTGTTCTCTTGAAGAGTGATTTCGTTGCTCGCCCCGGGTCAGGGCTCTCAGACTCCCGGCATGCTCATCCCTTGGTTGGAGCTGCCGGGTTCTCATGACCGTGTCGCACTGTGGTCGAAGGCTGCCGGCCTCGA (double strand) [fasII (fabD) promoter EMSA probe]
binds: [1]; 45 uM arachidoyl-CoA, complex more pronounced than without ligand | [1]; no acyl-CoA, binding also in nM range, modest shift | [2] | [3]
